The source of these data is the supplement of paper PMC6924143.

The subject of the data set is RAW-Blue (mouse TLR9 reporter, RAW 264.7). The data set can be described thus: mTLR9 reporter activity (SEAP, QUANTI-Blue absorbance) (OD650); higher = stronger mouse TLR9 activation. The following applies: 3 h. Here is the method: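 Synthetic single-stranded 24-mer CpG ODNs were diluted in saline and added to mouse RAW-Blue cells (RAW 264.7 with an NF-kB/AP-1-inducible SEAP reporter; endogenous mouse TLR9), about 1e5 cells/well. After 3 h, SEAP in the supernatant was read with QUANTI-Blue as absorbance at 650 nm. ODN concentration and backbone chemistry are not stated; activity of 0.4 or above is the paper's high-activity class.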

The data scatter; read single values as rough.

On to TCCTGATTCGACGCGCGTTCAGGC [mODN039], for which the mTLR9 reporter activity amounted to 0.71.

As for TCCTGGTTCGACGCGTGCGCCATT [mODN-029], the mTLR9 reporter activity was found to be 0.1. In turn, TCCTTCGGCGCCGCTTGGCGGACA [mODN83] registered a mTLR9 reporter activity of 0.45. Next, TCCTTGGCTCCGTCGACGGCGCTT [mODN93]: 0.41.

The sequence TCGACCGCCGTTGGCTGTTGGCCG [mODN-024] displayed a mTLR9 reporter activity of 0.52.

TCGACGCCGCGCTTGCGCTGGTTG [mODN84] gave a mTLR9 reporter activity of 0.54. Next, TCGACGCGCTTCGTTGTGTCTCGT [ODN208]: 0.249; TCGACGCTTGGCGGCATTGCCGTC [mODN-004]: 0.77. Next, TCGAGCCCGCCGGCGGTTCGCTTT [mODN069]: 0.56; TCGAGCGTCTTTCGCGCGTGCTGT [ODN220]: 0.19; TCGAGCGTGAGTTTTTTTTGCGCT [ODN051]: 0.256.

Consider TCGAGGCCGGATTCCTCGTTTCCG [mODN-018], for which the mTLR9 reporter activity turned out to be 0.16. TCGAGGGCCGGCGCCCTTCGGTTA [mODN-027] displayed a mTLR9 reporter activity of 0.25. Next, TCGAGGGCTTCGTTTCGCGCACCA [mODN-008]: 0.49.

As for TCGAGTACGTTGTTGACTGCAGTT [ODN105], the mTLR9 reporter activity amounted to 0.435. Next, TCGAGTTCCGCGCGCGGTCTTCCC [mODN054]: 0.51; TCGATTGTTCCCCAGCGGCGCGGG [mODN-010]: 0.16; TCGCACCGCGCTTCCTTGGCCCGG [mODN041]: 0.55. Next, TCGCACGCGTCGCGTGTATTTGTT [ODN104]: 0.11. Under TCGCAGACTTCCGCGCCTTGCGGA [mODN-003] stands 0.28; under TCGCATGTCAGAGTTGAGTCTGTT [ODN063], 0.165; under TCGCCATTGGCGCGCCGTTGCATG [mODN94], 0.48.

TCGCCCGTACTTGGGCGCGGCGTT [mODN052]: the mTLR9 reporter activity was determined as 0.3. Under TCGCCCTTGTGGTTCGACACGCGC [mODN059] stands 0.26; under TCGCCGGGCCGACCTTACGCGCTT [mODN-001], 0.1. Under TCGCCGTTCCACCCGGGGCGATTG [mODN97] stands 0.48; under TCGCCTCACTACGGCGGGTTCGTT [mODN055], 0.32; under TCGCCTTGACGGGGGTTCGCCCGC [mODN78], 0.6.

Consider TCGCGACTCATGCAAGTGTGTGTT [ODN100], for which the mTLR9 reporter activity was determined as 0.125. Next, TCGCGAGCGTGCGTCTTTTCGCGT [ODN173]: 0.148.

Consider TCGCGATGTCGTCGCGTGTGCGTT [ODN225], for which the mTLR9 reporter activity worked out at 0.191. Next, TCGCGCGACGTTGTTTTGTCTTGT [ODN125]: 0.264. Under TCGCGCGAGTGTGTTCTTCGCTTT [ODN218] stands 0.271; under TCGCGCGATTCTTGGGGACGCCCG [mODN-011], 0.9; under TCGCGCGCGCGTGCGCTCACTGCT [ODN219], 0.236.

For TCGCGCGCGCTTCTGTGTGATCTT [ODN179], the mTLR9 reporter activity came out at 0.124. Under TCGCGCGCTCGAGTCGCGCTCTTT [ODN187] stands 0.114; under TCGCGCGCTTTCGTGCTACTGCGT [ODN185], 0.143; under TCGCGCGCTTTGTTCAGTCGCTGT [ODN195], 0.256. Under TCGCGCGTAGTTGTGCTCTTTCGT [ODN182] stands 0.148; under TCGCGCGTCGATTGTCGTCTCGTT [ODN166], 0.194.

As to TCGCGCGTCGCTGCTGTGTGTTGT [ODN140], the mTLR9 reporter activity turned out to be 0.375. Next, TCGCGCGTGACGCTTGTTCGCTCT [ODN149]: 0.413; TCGCGCGTGCTGTGAGCGCGTTTT [ODN188]: 0.13. Next, TCGCGCGTGTCGTGTCTCGCATTT [ODN211]: 0.129; TCGCGCGTGTTGCGCTTATCGTGT [ODN174]: 0.102; TCGCGCGTTGTTCGTTGTTGTCAT [ODN134]: 0.739. With TCGCGCTCTGTTCGCGTTGTGTTT [ODN252], the mTLR9 reporter activity was determined as 0.191.

TCGCGGCCCGACGTTCCTTGGTAT [mODN057] displayed a mTLR9 reporter activity of 1.1. Next, TCGCGGCCCGCGTTCGCTGCATTC [mODN-023]: 0.51; TCGCGTATGTCGCGTTTTTGCGCT [ODN262]: 0.16; TCGCGTCGCTGTCGTGCTGCATTT [ODN135]: 0.568. Under TCGCGTCGTTATGCGCTCGTTCGT [ODN206] stands 0.26; under TCGCGTCGTTCTGCGCTCTGCTGT [ODN222], 0.272. Under TCGCGTGCGATGCGCTTCTGTCGT [ODN207] stands 0.154; under TCGCGTGCGCGTTGCGTGTCATGT [ODN154], 0.199. The sequence TCGCGTGCGTATTTTTGCGTCTGT [ODN210] had a mTLR9 reporter activity of 0.145. Next, TCGCGTGCGTCGTTGAGTCTTTTT [ODN127]: 0.362; TCGCGTGCGTGCGTCTGCTGCTAT [ODN144]: 0.181; TCGCGTGCGTTGTGTCATTCTCGT [ODN186]: 0.17. Under TCGCGTGGCCCTTATTCTCCGCGG [mODN044] stands 0.41. Under TCGCGTTCCTTGTCCGGCGGTACG [mODN-021] stands 0.65; under TCGCGTTCGCGCTCGTTGATCTGT [ODN119], 0.255; under TCGCGTTCGCGTGATCGTTTTGCT [ODN129], 0.268. Turning to TCGCGTTCGCTTGTGTACGTCTGT [ODN205], the mTLR9 reporter activity was 0.231. TCGCGTTCGTCGATGTCGTTCTGT [ODN648]: the mTLR9 reporter activity was 0.952. Under TCGCGTTCGTCGTGTTTGTGCTCT [ODN151] stands 0.657. The sequence TCGCGTTCGTCTACGCTGTGTCGT [ODN164] gave a mTLR9 reporter activity of 0.266. Under TCGCGTTGTCGGCCCGTTCCTCCG [mODN056] stands 0.84; under TCGCTAAGTGTGCGCGCGACGTTT [ODN087], 0.185; under TCGCTCACGCCGCTTGCTTGGTCG [mODN86], 0.68. Under TCGCTCCGGTCGGTTATTCGGCAC [mODN042] stands 0.5; under TCGCTCGATGCGCGTTCGTCTTGT [ODN638], 0.849; under TCGCTCGCGCGCAGCGTGTCTTCT [ODN657], 0.176.

As to TCGCTCGCGTCATTGTGTCGTTGT [ODN170], the mTLR9 reporter activity was 0.158.

For the sequence TCGCTCGCTCGTTATGTGCGTGTT [ODN716], the mTLR9 reporter activity was 0.611. Under TCGCTCGCTTGTCGCGATGTTTGT [ODN180] stands 0.132.
